Reference: article PMC10163288
Some of the results follow.

B1: il10ra_site1_sap_15_mot_HHH_b1_05357_000000034_0001_23_39_H_._HHH_b2_04748_0001_0000300023_0000002_0_0001 (protein)
chain: SSSSSDREAEQRAKALLWFAKWIRNEDAARIVLERAEEIAEELGDEELLEEIRELLEKLKSSSSS
B2: il10ra_site1_normal_mot_HHH_b2_03220_af2_000000223_0001_23_40_H_._HHH_b1_04932_0001_0000500057_0000001_0 (protein)
chain: SSSSSEETERIWELLRRILELIANGDPEEAEELLEEVRELIEEAGSEVLRFALRAIERALNSSSS
B3: il10ra_site1_normal_mot_HHH_b1_03333_000000091_0001_1_17_H_._HHH_b1_08449_af2_0001_0000300014_0000002_0 (protein)
chain: SSSSTEEYEELKRLIEEIVKAIRNNDPELVEELLRELEELIEETNNIAAKFSLRILEEALSSSSS
B4: il10ra_site1_normal_mot_HHH_b1_05757_000000171_0001_42_57_H_._cd9e2f3926f312894f93ac78c729c102_0001_1_0001_0000100001_0000001_0_af2pred_dldesign_0_af2pred (protein)
chain: VELLVEAIKRLSEKHPDDPEVQALVREAARLLLEGKPEEAAKLLKEAAELAGDAEVLALVEKVLE
B5: il10ra_site1_normal_mot_HHH_b2_06199_000000213_0001_1_17_H_._HHH_b1_05284_0001_0000100001_0000001_0 (protein)
chain: SSSSSNEEEAQKAARRLLEAAKQVEDPERVRLALRFALFLARQANDEELEEEIEELLKEYSSSSS
B6: il10ra_site1_normal_mot_HEEHE_1605_000000211_0001_40_56_H_._544ef0e38e907b7890d4414ebae48784_0001_1_0001_0000100002_0000001_0_af2pred_0001 (protein)
chain: TEEELIEELAKLLGLPPETVRLALERLEELEGDPERAVRSFLLALKLSGKLTPEVEELLEKIART
B7: il10ra_site1_sap_16_mot_HHH_b1_06914_000000033_0001_1_18_H_._HHH_b2_07672_0001_0000100004_0000002_0_0001 (protein)
chain: SSSSSSDEVLELSLEAFRLSLRGDPEEAREVLEEALELARERGDERLAHVIEDLLKAASSSSSSS
B8: il10ra_site1_normal_mot_HHH_b2_00984_000000042_0001_1_20_H_._HHH_b2_04396_af2_0001_0000400016_0000001_0 (protein)
chain: SSSSDEEERLRELLERLEELLEEGDLRELSRLAQEALRLAYRLGDKETLQEIWELIRRLHSSSSS
B9: il10ra_site1_sap_25_mot_HHH_b1_06837_000000150_0001_20_37_H_._HHH_b2_02609_0001_0000600038_0000001_0_0001 (protein)
chain: SSSSSSVEELAEEAEELARERGDEEALTLVEAIQRLAEQGILDPRFAELSLELLIELLRESSSSS
B10: il10ra_site1_sap_20_mot_HHH_b1_02997_000000220_0001_39_52_H_._HHH_b2_01069_af2_0001_0000100007_0000001_1_0001_af2pred_0001 (protein)
chain: SSSSSSEERRRAVELLREAARIDDEEKAREIAEEVEELAEELNDPVLKIAVRFLLEQLKSSSSSS

Biological target: il10ra, Q13651
Test: yeast display titration

Apparent Kd, inactive:
B1 no binding seen
B2 no binding seen
B3 no binding seen
B4 no binding seen
B5 no binding seen
B6 no binding seen
B7 no binding seen
B8 no binding seen
B9 no binding seen
B10 no binding seen

Reprinted at random: 2 entries already listed, in no set order.
Apparent Kd, inactive:
B10 no binding seen
B7 no binding seen
